Experimental data: article PMC12125285
Numbering of substitutions follows the chain as printed. Numbers in names are those of the source. No constants are given. Whether binding was seen depends on the method and setting. Binding seen in cells or lysates may run through a third protein. A result given as binding can be weak or reduced; the word gives no strength. Where a sequence is shown, tags or fusion partners need not be part of it.

Chains of the proteins cited; added tags and fusions are not shown. Lines headed by an entry give the natural chain unless they say otherwise; changes in a name come on top.
UniProt Q9JHF5: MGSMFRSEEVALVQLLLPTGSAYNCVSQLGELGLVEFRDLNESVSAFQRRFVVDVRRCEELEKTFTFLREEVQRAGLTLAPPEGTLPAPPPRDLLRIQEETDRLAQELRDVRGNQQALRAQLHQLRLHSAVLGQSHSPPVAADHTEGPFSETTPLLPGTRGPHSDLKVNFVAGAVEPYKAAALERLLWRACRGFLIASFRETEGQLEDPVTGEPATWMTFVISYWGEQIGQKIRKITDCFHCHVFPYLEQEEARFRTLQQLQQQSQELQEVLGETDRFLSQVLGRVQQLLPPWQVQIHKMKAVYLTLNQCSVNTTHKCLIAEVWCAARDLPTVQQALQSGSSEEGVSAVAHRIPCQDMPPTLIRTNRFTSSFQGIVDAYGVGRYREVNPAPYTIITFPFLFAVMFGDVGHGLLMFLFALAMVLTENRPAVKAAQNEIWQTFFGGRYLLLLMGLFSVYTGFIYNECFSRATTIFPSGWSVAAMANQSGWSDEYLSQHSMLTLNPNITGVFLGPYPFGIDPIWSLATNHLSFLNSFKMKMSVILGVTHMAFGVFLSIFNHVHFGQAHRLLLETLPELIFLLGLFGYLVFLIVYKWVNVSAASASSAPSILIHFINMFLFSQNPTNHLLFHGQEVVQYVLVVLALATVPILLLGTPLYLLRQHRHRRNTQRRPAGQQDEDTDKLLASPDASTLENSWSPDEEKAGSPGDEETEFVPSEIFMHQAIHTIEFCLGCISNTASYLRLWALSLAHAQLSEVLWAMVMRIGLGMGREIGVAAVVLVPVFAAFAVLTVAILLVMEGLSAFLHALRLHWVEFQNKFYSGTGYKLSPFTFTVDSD

T1: FLAG-Rab27A(T23N) (UniProt Q9ERI2)
T1 sequence: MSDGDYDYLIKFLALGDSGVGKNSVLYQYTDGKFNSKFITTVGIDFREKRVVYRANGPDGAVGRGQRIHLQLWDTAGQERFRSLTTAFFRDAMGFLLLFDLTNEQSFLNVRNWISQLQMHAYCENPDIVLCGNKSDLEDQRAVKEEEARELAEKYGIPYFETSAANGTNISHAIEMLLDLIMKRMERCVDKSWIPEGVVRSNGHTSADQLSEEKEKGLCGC

B1: V5-fused Rab27A T23N (GDP-bound form) (protein, UniProt Q9ERI2 1-221)
chain: T1 sequence
B2: V5-fused Rab27A Q78L (GTP-bound form) (protein, UniProt Q9ERI2 1-221)
chain: T1 sequence with N23T, Q78L
B3: V5-EPI64, the Rab27A GTPase-activating protein (GAP) (protein, UniProt P58802 1-500)
chain: MAKSSRENGPREPAAGGSLSGTRESLAQGPDAATADELSSLGSDSEANGFAERRIDKFGFIVGSQGAEGALEEVPLEVLRQRESKWLDMLNNWDKWMAKKHKKIRLRCQKGIPPSLRGRAWQYLSGGKVKLQQNPGKFDELDMSPGDPKWLDVIERDLHRQFPFHEMFVSRGGHGQQDLFRVLKAYTLYRPEEGYCQAQAPIAAVLLMHMPAEQAFWCLVQVCEKYLPGYYSEKLEAIQLDGEILFSLLQKVSPVAHKHLSRQKIDPLLYMTEWFMCAFARTLPWSSVLRVWDMFFCEGVKIIFRVGLVLLKHALGSPEKLKACQGQYETIEQLRSLSPKIMQEAFLVQEVIELPVTERQIEREHLIQLRRWQETRGELECRSLPRMHGAKAILDAEPGPRPALQPSPSIRLPPDAALLSSKAKPHKQAQKEQKRTKTSAQLDKSPGLSQATVVTAAGDACPPQGVSPKDPVPQDPTPQNLACHHSQESLTSQESEDTYL

Legend:
FLAG-Rab27A(T23N) [1] = biological target: T1, FLAG-Rab27A(T23N); assay: co-IP; co-expression in HEK293T; lysate in 1% Triton X-100, 10% glycerol, 50 mM Tris-HCl pH 7.4, 150 mM NaCl, 1 mM DTT, 1 mM EDTA; anti-FLAG M2-agarose, 2 h at 4 °C; western blot
FLAG-Rab27A(T23N) [2] = biological target: T1, FLAG-Rab27A(T23N); assay: co-IP; HEK293T post-nuclear supernatant centrifuged at 100,000 x g for 30 min into membrane and soluble fractions; immunoprecipitation buffer added; anti-FLAG precipitation; western blot
[3] = biological target: FLAG-tagged a3 subunit isoform of V-ATPase (UniProt Q9JHF5); assay: co-IP; co-expression in HEK293T; lysate in 1% Triton X-100, 10% glycerol, 50 mM Tris-HCl pH 7.4, 150 mM NaCl, 1 mM DTT, 1 mM EDTA; anti-FLAG M2-agarose, 2 h at 4 °C; western blot

| Molecule | binding (FLAG-Rab27A(T23N) [1]) | binding (FLAG-Rab27A(T23N) [2]) | binding [3] |
| --- | --- | --- | --- |
| V5-tagged a3 subunit isoform of V-ATPase (from UniProt Q9JHF5) | binds | binds |  |
| B1 |  |  | binds |
| B2 |  |  | no binding |
| B3 |  |  | no binding |
